## Small-molecule microarray binding calls

From ROBIN, a set of small-molecule microarray screens (doi:10.1002/anie.202211358).

Oligonucleotides screened, 5′ to 3′:
T1: PreQ1 riboswitch RNA pseudoknot, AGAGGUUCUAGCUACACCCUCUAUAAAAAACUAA. From B. subtilis. About 170 hits among about 24,000 compounds.
T2: SAM-II riboswitch RNA pseudoknot, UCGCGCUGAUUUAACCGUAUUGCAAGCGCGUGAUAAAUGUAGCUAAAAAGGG. About 200 hits among about 21,000 compounds.
T3: TPP riboswitch RNA three-way junction, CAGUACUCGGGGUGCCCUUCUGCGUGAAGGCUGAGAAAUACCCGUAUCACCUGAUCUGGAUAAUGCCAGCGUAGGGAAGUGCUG. About 160 hits among about 24,000 compounds.

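The test is a small-molecule microarray: each compound is printed twice on a reactive slide, and binding shows as fluorescence of the labelled oligonucleotide after washing. The data file lists only calls. An earlier report of the laboratory on the PreQ1, TPP and SAM-II riboswitches (doi:10.1038/s41467-019-09493-3) used 1 µM RNA for 2 h and required a mean Z-score above 3 (spot signal-to-noise against the whole library), a score well above that on a control array, and duplicate spots agreeing (coefficient of variation under 100); it then also set aside compounds that hit other targets, which this list keeps. The cut-offs behind this list may differ. These are primary screening calls, not affinities; a compound without a hit may have attached poorly or may still bind in solution.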 “hit” means called a hit, “none” means screened and not called a hit. Compounds were drawn at random from those tested, without regard to their results. A target missing from an entry has no call listed here. A dash means that no call is listed here.

Compound,T1,T2,T3
CC(=O)c1ccccc1OCC(O)Cn1c(CO)nc2ccccc21 (stereo not drawn),none,none,none
Cc1ccc(NCC(O)Cn2c(C)c(C)c3ccccc32)cc1C (stereo not drawn),none,none,none
Fc1ccc(C(NC2CCCCC2)c2nnc(-c3ccccc3)o2)cc1 (stereo not drawn),none,none,none
CCCCC(CC)CN1CC(=O)C(c2nc3ccccc3s2)=C1N (stereo not drawn),none,-,none
CSCCc1nc(C(C)c2ccc(Cl)cc2)n(CCO)n1 (stereo not drawn),none,none,none
C=CCn1c(=N)n(CC(O)COc2ccccc2C)c2ccccc21 (stereo not drawn),none,none,none
CCCc1cc(Nc2ccc(C(=O)N3CCOCC3)cc2)n2nc(-c3cccnc3)nc2n1,none,-,none
CN1c2ccccc2C2=C(C(c3cccc(F)c3)C(C#N)=C(N)O2)S1(=O)=O (stereo not drawn),none,-,none
CCc1noc(CN(CC)C(=O)C2(Nc3ccc(C)cc3)CCCC2)n1,none,none,none
CC(C)(C)OC(=O)C1=C(N)OC2=C(C(=O)CCC2)C12C(=O)Nc1ccc(Br)cc12 (stereo not drawn),none,none,none
COCc1nn2c(N)c(-c3ccc(Cl)cc3)cnc2c1-c1ccc(Cl)cc1,none,none,none
CCCc1cc(Nc2ccc(C(=O)N3CCCCCC3)cc2)n2nc(-c3cccnc3)nc2n1,none,-,none
CCCc1nc2nc(C)cc(Nc3ccccc3)n2n1,none,none,none
CS(=O)(=O)c1ccc(-c2c(-c3ccccc3)ncn2CCCO)cc1,none,none,none
Cn1c(=O)c2c(nc(NC3CCCCC3)n2Cc2ccc(F)cc2)n(C)c1=O,none,none,none
Nc1sc2c(c1C(=O)Nc1cccc(Cl)c1)CCCCC2,none,none,none
Cc1nc(N)nc(Cl)c1CCC1OCCO1,none,none,none
COc1ccc(OC)c(-c2cc(N)nc3[nH]ccc23)c1,none,none,none
Cc1cnc(CNCc2ccc(OCC(=O)N3CCOCC3)cc2)cn1,hit,none,none
NC(=O)CSc1nnc(Nc2ccccc2)s1,none,none,none
Cc1cc(NC(=O)CN2CCN(CCO)CC2)no1,none,none,none
CCn1c(C2CCNCC2)nn(Cc2nccc(OC)c2OC)c1=O,none,none,none
COc1c(C2C(C#N)=C(N)OC3=C2C(=O)CCC3)cc2c(c1OC)OCO2 (stereo not drawn),none,none,none
c1ccc(-n2cncn2)c(CNC2CCC3(CCNCC3)CC2)c1,none,none,none
N#Cc1c(-c2ccccc2F)c(C#N)c2nc3ccccc3n2c1N,none,none,none
Cc1ccc(NC(=O)c2cnn(C(=O)c3ccccc3)c2N)cc1,none,none,none
O=C(O)c1ccc(O)c(O)c1,none,none,none
COCCCC1(CO)CCCN(C(=O)COc2ccc(C)cc2)C1 (stereo not drawn),none,none,none
COC(=O)[C@]12CCC(C)(C)C[C@H]1[C@H]1C(=O)C=C3[C@@]4(C)C=C(C#N)C(=O)C(C)(C)[C@@H]4CC[C@@]3(C)[C@]1(C)CC2,none,none,none
C=CCOc1ccc(C2C(C#N)=C(N)Oc3cc4c(cc32)OCO4)cc1OC (stereo not drawn),none,none,none
COc1ccc(C(=O)c2sc3nc(C)c(Cl)c(C)c3c2N)cc1,none,none,none
O=C(O)Cn1cc(CO)nn1,none,none,none
COc1ccc(-c2nn3c(C)nnc3s2)cc1N,none,none,none
Cc1ccc(S(=O)(=O)Nc2nc3ccccc3nc2Nc2ccccc2N2CCOCC2)cc1,none,none,none
Cc1ccccc1-c1nc(S(=O)(=O)c2ccccc2)c(NCC2CCCO2)o1 (stereo not drawn),none,-,none
Cc1ccc2c(CNCC(C)c3ccccc3)c(C(=O)O)[nH]c2c1 (stereo not drawn),none,-,none
N#CC1=C(N)Oc2[nH]nc(-c3ccccc3)c2C12C(=O)Nc1ccc(Br)cc12 (stereo not drawn),none,none,none
O=C(CCNCCS(=O)(=O)N1CCCC1)Nc1nccs1,none,none,none
CC(C)c1ccnc(N2CCOC(CCN)C2)n1 (stereo not drawn),none,none,none
COc1ccc(-c2cc(CNC(C)CC(F)(F)F)on2)cc1 (stereo not drawn),none,none,none
Cc1cc(C)c2c(n1)nn1c(NCc3ccccc3)cc(C)nc21,none,-,none
NC(=O)Nc1sc(-c2ccc(F)cc2)cc1C(N)=O,none,none,none
COC(=O)c1cc2n(n1)CCCN(C(=O)c1ccc3sc(N)nc3c1)C2,none,none,none
O=c1cc(CO)oc(CN2CCN(c3ccccn3)CC2)c1O,none,none,none
Cc1c(C(=O)N2[C@@H]3CC[C@H]2C[C@@H](O)C3)sc2ncn(C)c(=O)c12,none,none,none
Cc1[nH]c(C(Cl)(Cl)Cl)nc(=O)c1SCCO,none,none,none
N#CC1=C(N)OC2=C(C1c1cccc(Cl)c1)S(=O)(=O)N(Cc1ccccc1F)c1ccccc12 (stereo not drawn),none,-,none
C(=N\N=c1/nnn(Cc2ccccc2)[nH]1)/c1ccccc1,none,none,none
CCc1noc(N)c1C(=O)Nc1ccc(Cl)cc1,none,none,none
CC(=O)c1cc2c(N)c(C(=O)c3ccc(Br)cc3)sc2nc1C,none,none,none
Cc1nc2ncccn2c1C(=O)NCc1ccc(CN)cc1,none,none,none
CCCNc1ncc(CN2CCC3(CCCN(CCO)C3=O)C2)cn1 (stereo not drawn),none,none,none
C=CCC1(CO)CCCN(CC(=O)NCCc2ccc(Cl)cc2)C1 (stereo not drawn),none,none,none
C1COC(NC(C2CC2)C2CC2)=N1,none,none,none
Cc1cccc(C)c1NC1OC(=O)c2ccccc21 (stereo not drawn),none,none,none

Repeated from the top, 3 entries:

{"compound": "CC(=O)c1ccccc1OCC(O)Cn1c(CO)nc2ccccc21", "stereo": "stereo not drawn", "T1": "none", "T2": "none", "T3": "none"}
{"compound": "Cc1ccc(NCC(O)Cn2c(C)c(C)c3ccccc32)cc1C", "stereo": "stereo not drawn", "T1": "none", "T2": "none", "T3": "none"}
{"compound": "Fc1ccc(C(NC2CCCCC2)c2nnc(-c3ccccc3)o2)cc1", "stereo": "stereo not drawn", "T1": "none", "T2": "none", "T3": "none"}